The record followed here is patent EP1943275B1 (Activotec SPP Limited, priority 2005, dated 2010).

HELM strings list residues between dots; [ac] is acetyl, [am] amide, other brackets name non-standard units.

Series [1] is described as follows: general procedure: Fmoc solid-phase peptide synthesis; PL-PEGA resin (Polymer Labs) with HMPA handle; HCTU/DIPEA. Conditions: whole synthesis, scale of the general procedure 0.2 mmol.
Series [2] in a line: general procedure: Fmoc solid-phase peptide synthesis; HMPA-PEGA resin; HCTU/DIPEA. The note with it: whole synthesis, overall, scale of the general procedure 0.2 mmol.

On to “PEPTIDE1{H.[NH-NH-CH(CH3)-CO].E.G.T.F.T.S.D.V.S.S.Y.L.E.G.Q.A.A.K.E.F.I.A.W.L.V.K.G.R.G}$$$$V2.0”, for which the difficulty met result in series [1] is “Fmoc release of the resin showed a failed coupling”. “PEPTIDE1{[CO-L-Ala-L-His-NH2].E.G.T.F.T.S.D.V.S.S.Y.L.E.G.Q.A.A.K.E.F.I.A.W.L.V.K.G.R.G}$$$$V2.0”: the isolated yield result in series [2] is recorded as “about 10% overall yield”.
